Measured values as given in US20180104321A1.
Results are given in words; binding and its absence hold for the method and conditions named. Some results given as binding are weak or reduced against the parent protein; the word gives no strength.

Protein sequences, listed by entry. Tags and fused reporters are not part of them. Lines headed by an entry give the natural chain unless they say otherwise; changes in a name come on top. Residues count along the entry.
UniProt P20138, residues 18-259: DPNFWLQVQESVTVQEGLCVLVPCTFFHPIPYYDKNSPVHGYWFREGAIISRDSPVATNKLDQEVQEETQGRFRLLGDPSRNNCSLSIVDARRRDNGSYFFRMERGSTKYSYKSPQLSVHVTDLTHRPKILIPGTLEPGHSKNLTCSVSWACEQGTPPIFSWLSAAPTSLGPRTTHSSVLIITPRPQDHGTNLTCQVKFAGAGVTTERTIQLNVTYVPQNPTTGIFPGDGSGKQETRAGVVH

What was measured:
[1] = biological target: chimeric soluble CD33-Mouse Fc (UniProt P20138); assay: flow cytometry of transfected 293T cells (FIG. 22 legend; staining reagents as in Example 9)
[2] = biological target: recombinant CD33-Fc fusion (FIG. 17) (UniProt P20138); assay: flow cytometry of transduced PBMCs stained with recombinant CD33-Fc (FIG. 17C)
[3] = biological target: chimeric soluble CD33-Mouse Fc (UniProt P20138); assay: flow cytometry of transfected 293T cells stained with soluble CD33-mouse Fc, then anti-mouse Fc-APC (FIG. 22)

Measured: binding

B1: anti-CD33 CAR of the CD19:CD33 CAR construct of Examples 7 to 10 (receptor, not shown: large carriers)
chain: RCDIQMTQSPSSLSASVGDRVTITCRASEDIYFNLVWYQQKPGKAPKLLIYDTNRLADGVPSRFSGSGSGTQYTLTISSLQPEDFATYYCQHYKNYPLTFGQGTKLEIKRSGGGGSGGGGSGGGGSGGGGSRSEVQLVESGGGLVQPGGSLRLSCAASGFTLSNYGMHWIRQAPGKGLEWVSSISLNGGSTYYRDSVKGRFTISRDNAKSTLYLQMNSLRAEDTAVYYCAAQDAYTGGYFDYWGQGTLVTVSSM
binds: all assays above
